Results deposited as PubChem BioAssay AID743121 (NCATS, 2013).

- Purpose: 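Genes whose silencing strengthens cell killing by camptothecin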 (primary screen)
- Cell system: MDA-MB-231 cells, a human breast cancer line
- Reagent: single siRNA against human genes, 20 nM siRNA (0.8 pmol per well)
- Timing: 120 h (drug added 48 h after transfection, read 72 h later)
- Conditions: camptothecin 20 nM (about EC30) for 72 h; vehicle 0.1% DMSO in parallel plates
- Detection: 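CellTiter-Glo ATP signal, scaled to control siRNA as percent viability; sensitisation given as log2 of untreated divided by camptothecin-treated viability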
- Direction: log2 vehicle/camptothecin viability: higher = stronger sensitisation to camptothecin
- Active means: 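Each gene scored by redundant siRNA activity (RSA) over its individual siRNA ratios; a gene is called active at p < 0.001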
The deposit covers about 26,000 reagents; shown is a part drawn at random. Of all reagents, 167 (0.63%) got an active call. 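Calls are per gene from RSA p-values that are not deposited; an individual active-marked siRNA can sensitise only weakly.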 Reagents against one gene are numbered here. Further read-outs or replicates are left out here.

The opening 6 records as a preview:
| target gene | reagent no. | log2 vehicle/camptothecin viability | call |
| --- | --- | --- | --- |
| FUT1 (fucosyltransferase 1 (H blood group)) | 1 | -0.335 | inactive |
| FUT1 (fucosyltransferase 1 (H blood group)) | 2 | -0.311 | inactive |
| FUT1 (fucosyltransferase 1 (H blood group)) | 3 | 0.00822 | inactive |
| FUT1 (fucosyltransferase 1 (H blood group)) | 4 | -0.0798 | inactive |
| SFRP1 (secreted frizzled related protein 1) | 1 | 0.161 | inactive |
| SFRP1 (secreted frizzled related protein 1) | 2 | 0.0283 | inactive |

Results, from the first entry:
| target gene | reagent no. | log2 vehicle/camptothecin viability | call |
| --- | --- | --- | --- |
| FUT1 (fucosyltransferase 1 (H blood group)) | 1 | -0.335 | inactive |
| FUT1 (fucosyltransferase 1 (H blood group)) | 2 | -0.311 | inactive |
| FUT1 (fucosyltransferase 1 (H blood group)) | 3 | 0.00822 | inactive |
| FUT1 (fucosyltransferase 1 (H blood group)) | 4 | -0.0798 | inactive |
| SFRP1 (secreted frizzled related protein 1) | 1 | 0.161 | inactive |
| SFRP1 (secreted frizzled related protein 1) | 2 | 0.0283 | inactive |
| SFRP1 (secreted frizzled related protein 1) | 3 | 0.31 | inactive |
| HTR1B (5-hydroxytryptamine receptor 1B) | 1 | -0.193 | inactive |
| HTR1B (5-hydroxytryptamine receptor 1B) | 2 | -0.334 | inactive |
| HTR1B (5-hydroxytryptamine receptor 1B) | 3 | -0.509 | inactive |
| HTR1B (5-hydroxytryptamine receptor 1B) | 4 | 0.493 | inactive |
| SIN3A (SIN3 transcription regulator family member A) | 1 | -0.118 | inactive |
| SIN3A (SIN3 transcription regulator family member A) | 2 | -0.0648 | inactive |
| SIN3A (SIN3 transcription regulator family member A) | 3 | 0.211 | inactive |
| SIN3A (SIN3 transcription regulator family member A) | 4 | -0.116 | inactive |
| SNX21 (sorting nexin family member 21) | 1 | -0.196 | inactive |
| SNX21 (sorting nexin family member 21) | 2 | 0.284 | inactive |
| SNX21 (sorting nexin family member 21) | 3 | -0.255 | inactive |
| LPAR1 (lysophosphatidic acid receptor 1) | 1 | -0.502 | inactive |
| LPAR1 (lysophosphatidic acid receptor 1) | 2 | -0.547 | inactive |
| LPAR1 (lysophosphatidic acid receptor 1) | 3 | 0.121 | inactive |
| LPAR1 (lysophosphatidic acid receptor 1) | 4 | -0.222 | inactive |
| ACVR2A (activin A receptor type 2A) | 1 | -0.0666 | inactive |
| ACVR2A (activin A receptor type 2A) | 2 | -0.23 | inactive |
| ACVR2A (activin A receptor type 2A) | 3 | -0.0086 | inactive |
| ACVR2A (activin A receptor type 2A) | 4 | 1.08 | inactive |
| NEK4 (NIMA related kinase 4) | 1 | -0.682 | inactive |
| NEK4 (NIMA related kinase 4) | 2 | 0.507 | inactive |
| NEK4 (NIMA related kinase 4) | 3 | -0.251 | inactive |
| NEK4 (NIMA related kinase 4) | 4 | 0.15 | inactive |
| TGM4 (transglutaminase 4) | 1 | -0.572 | inactive |
| TGM4 (transglutaminase 4) | 2 | -0.0634 | inactive |
| TGM4 (transglutaminase 4) | 3 | 0.132 | inactive |
| PARD6G (par-6 family cell polarity regulator gamma) | 1 | -0.256 | inactive |
| PARD6G (par-6 family cell polarity regulator gamma) | 2 | -0.255 | inactive |
| PARD6G (par-6 family cell polarity regulator gamma) | 3 | -0.0148 | inactive |
| PARD6G (par-6 family cell polarity regulator gamma) | 4 | -0.681 | inactive |
| ALOX12 (arachidonate 12-lipoxygenase, 12S type) | 1 | 0.0318 | inactive |
| ALOX12 (arachidonate 12-lipoxygenase, 12S type) | 2 | 0.093 | inactive |
| ALOX12 (arachidonate 12-lipoxygenase, 12S type) | 3 | -0.235 | inactive |
| ALOX12 (arachidonate 12-lipoxygenase, 12S type) | 4 | -0.281 | inactive |
| CCL14 (C-C motif chemokine ligand 14) | 1 | 1.55 | inactive |
| CCL14 (C-C motif chemokine ligand 14) | 2 | 0.0271 | inactive |
| CCL14 (C-C motif chemokine ligand 14) | 3 | -0.47 | inactive |
| CCL14 (C-C motif chemokine ligand 14) | 4 | -0.0133 | inactive |
| CNGB1 (cyclic nucleotide gated channel subunit beta 1) | 1 | -0.186 | inactive |
| CNGB1 (cyclic nucleotide gated channel subunit beta 1) | 2 | 0.255 | inactive |
| CNGB1 (cyclic nucleotide gated channel subunit beta 1) | 3 | -0.592 | inactive |
| CNGB1 (cyclic nucleotide gated channel subunit beta 1) | 4 | 0.0819 | inactive |
| EFCAB6 (EF-hand calcium binding domain 6) | 1 | -0.312 | inactive |
| EFCAB6 (EF-hand calcium binding domain 6) | 2 | -0.121 | inactive |
| EFCAB6 (EF-hand calcium binding domain 6) | 3 | -0.295 | inactive |
| EFCAB6 (EF-hand calcium binding domain 6) | 4 | 0.0214 | inactive |
| TNFRSF18 (TNF receptor superfamily member 18) | 1 | -0.158 | inactive |
| TNFRSF18 (TNF receptor superfamily member 18) | 2 | 0.293 | inactive |
| TNFRSF18 (TNF receptor superfamily member 18) | 3 | -0.463 | inactive |
| TNFRSF18 (TNF receptor superfamily member 18) | 4 | -0.204 | inactive |
| CPA4 (carboxypeptidase A4) | 1 | -0.128 | inactive |
| CPA4 (carboxypeptidase A4) | 2 | -0.192 | inactive |
| CPA4 (carboxypeptidase A4) | 3 | -0.349 | inactive |
| CPA4 (carboxypeptidase A4) | 4 | 0.185 | inactive |
| NCBP2 (nuclear cap binding protein subunit 2) | 1 | -0.733 | inactive |
| NCBP2 (nuclear cap binding protein subunit 2) | 2 | -0.6 | inactive |
| NCBP2 (nuclear cap binding protein subunit 2) | 3 | 0.0601 | inactive |
| NCBP2 (nuclear cap binding protein subunit 2) | 4 | 0.0448 | inactive |
| KHSRP (KH-type splicing regulatory protein) | 1 | -0.512 | inactive |
| KHSRP (KH-type splicing regulatory protein) | 2 | -0.459 | inactive |
| KHSRP (KH-type splicing regulatory protein) | 3 | -0.178 | inactive |
| KHSRP (KH-type splicing regulatory protein) | 4 | 0.0304 | inactive |
